Here are results for 1 molecule from PMC12691606.

The target in the experiment is RGNNV capsid protein (CP) of the virus (red-spotted grouper nervous necrosis virus (RGNNV)). As to the kind of experiment: affinity purification with mass spectrometry; GS cells infected with RGNNV (MOI = 1) or mock-infected, 24 h post-infection; lysate incubated with resin immobilized with anti-RGNNV-CP mAb at 4°C overnight; LC-MS/MS.

No constants are given. Whether binding was seen depends on the method and setting. Binding seen in cells or lysates may run through a third protein. Here binding means that the protein was enriched with, or labelled near, the bait; the list need not be complete.

B1: Epinephelus coioides CXC chemokine receptor 4b, endogenous in GS cells (receptor, UniProt G0XMT3 1-367)
chain: MSYYEHIVFDYDLNDTGSGSGSGDMGVDLQELCDMEHVITDELQQVFLPVVYALIFILGITGNGLVVIVLGCQRRSKCSLTDRYRLHLSAADLLFVLALPFWAVDAALADWRFGEVTCVGVNVIYTVNLYGSVLILAFISLDRYLAVVRATDTNTGELRQLLAHKLVYVGAWLPAGLLAVPDLIYARTQEGGEGATLCQRFYPADNGPIWVAVFHLQLVLVGLVIPGLVLLVCYCVIVTRLTRGPLGGQRQKRRAVRTTIALVLCFFVCWLPYGAGISVDALLRLEVLPRSCRLEAILGVWLAVAEPMAFAHCCLNPLLYAFLGAGFKSSARRALTLSRASSLKILPRRRPGASTTTESESSSLHSS
B1: the binding result is “binds”.
